Some of the results follow.
B1: il10ra_site1_normal_mot_HHH_b2_00475_000000107_0001_44_57_H_._HHH_b1_06647_af2_0001_0000300012_0000001_0 (protein)
chain: SSSSLEERVVELAFRAVRLLANGNPEEAEEVLEEARELAEELNDEELRRYVEIAEHFVEAHSSSS
B2: il10ra_site1_sap_17_mot_HHH_b2_07688_000000045_0001_1_20_H_._HHH_b2_03262_af2_0001_0000600051_0000001_1_0001 (protein)
chain: SSSSDEERHRLAELILRVARLMFRGNPEEAKELIEEAEELAKELGDERAERMLEDLERILNSSSS
B3: il10ra_site1_normal_mot_b26a303360aa2756ef5b79665ce52f45_0001_000000179_0001_1_11_H_._HHH_b1_02177_af2_0001_0000200024_0000001_1 (protein)
chain: SSSSDEELEKLFKLIREAAELAYRGNPEEAKQVLEEALELAEELGNEVIAFSIRHLLRDLSSSSS
B4: il10ra_site1_sap_17_mot_HHH_b1_04514_000000156_0001_1_18_H_._HHH_b1_03809_0001_0000300008_0000001_0_0001 (protein)
chain: SSSSDEAYRIAEEVIEEVIELQRNGNEEEAEKLLREAREEVEEANTMAALWSLRHLLRLLTSSSS
B5: il10ra_site1_normal_mot_HHH_b1_05021_af2_000000167_0001_42_56_H_._HHH_b2_08048_0001_0000200012_0000001_0_af2pred_0001 (protein)
chain: SSSSNEELRELIELLREAAELIHDGNPEEAREVIEKAKEIAKEANNELAKFILEWLEERVSSSSS
B6: il10ra_site1_sap_16_mot_HHH_b1_07286_af2_000000054_0001_1_19_H_._HHH_b2_05721_0001_0000100004_0000001_0_0001 (protein)
chain: SSSSSEEQEALELVLEAFHLALRGDEEEAEKVLEEALELAKEAGDERLARQIENMLKALKSSSSS
B7: il10ra_site1_sap_25_mot_HHH_b1_06804_000000054_0001_40_54_H_._HHH_b2_04424_0001_0000100002_0000001_0_0001 (protein)
chain: SVEEKVQEAIEEVVPDPEERRLLKLSLELQARQAGDPEQAARALAAFLYLRGNPELAELIEELLP
B8: il10ra_site1_normal_mot_HHH_b1_00456_000000263_0001_1_17_H_._HHH_b2_03924_0001_0000300014_0000002_0_af2pred_0001 (protein)
chain: SSSSSSDEEKEEAEELVEEARKIEDPKEVFKLLLEAFAIAVELNDDELRELVEKALRELSSSSSS
B9: il10ra_site1_normal_mot_HHH_b2_01310_000000089_0001_41_55_H_._HHH_b2_01340_0002_0000100003_0000001_1_af2pred_dldesign_0_af2pred (protein)
chain: SSSSSREELERLRAEVRALLEAGREEEAVEVLRELSRRATLLGDSEALQEAVELAKRIEESSSSS
B10: il10ra_site1_sap_27_mot_HHH_b1_07645_000000183_0001_1_20_H_._HHH_b2_04569_0001_0000400011_0000002_0_0001 (protein)
chain: SSSSSEEEEELEELIKKAEELLERGNPQEALEVLREAVRLAFQLGDPEALRKIWELVMRLKSSSS
B11: il10ra_site1_sap_20_mot_HHH_b1_05088_af2_000000046_0001_20_36_H_._HHH_b1_01147_0001_0000300027_0000001_0_0001 (protein)
chain: SSSSDLEEEIEKLREELEEARERGDKELALRLLLELLRLAYRTNDEELLQELWKIIREINSSSSS
B12: il10ra_site1_sap_16_mot_HHH_b2_01235_000000294_0001_1_18_H_._HHH_b1_05662_0001_0000300032_0000002_0_0001_af2pred_0001 (protein)
chain: SSSSSSYEHIVRIALETARIAAKRGDPELVERILRIAKLSAELANDPELERLVEEVERELSSSSS
B13: il10ra_site1_sap_12_mot_HHH_b2_07913_000000228_0001_1_19_H_._HHH_b1_06663_0001_0000200030_0000001_0_0001_af2pred_0001 (protein)
chain: SSSSSSREEILQLFVRISRLLDEGDEEEARHLLEELRELVEEYNDERAKKALRFLESLLSSSSSS
B14: il10ra_site1_sap_25_mot_HHH_b1_00103_000000293_0001_1_15_H_._HHH_b2_08380_0001_0000200009_0000001_0_0001 (protein)
chain: SSSSSDVAKIAQEALRAAYQKGDEEALQLIWEIIEEAAKGKIDEEEASKRLEEILEELESSSSSS
B15: il10ra_site1_sap_13_mot_HHH_b1_00169_000000276_0001_1_18_H_._HHH_b2_00204_af2_0001_0000600016_0000001_0_0001_af2pred_0001 (protein)
chain: SSSSDEVEEFAQEVAKRLAQLAREGDEEKVRELAEEAREELEKLGDPQLLLRLEALLRLINSSSS
B16: il10ra_site1_sap_12_mot_HHH_b1_06348_000000162_0001_1_15_H_._HHH_b1_02734_0002_0000200011_0000001_0_0001 (protein)
chain: SSSSDVQELLAIVARLMRKARDPEELRRLQRLSIEAQELLEEGDEEEARRVLEEAVEEYESSSSS
B17: il10ra_site1_sap_23_mot_HHH_b2_04681_000000155_0001_43_57_H_._HHH_b1_05116_af2_0001_0000200010_0000001_0_0001 (protein)
chain: SSSSSSDVEELLEEAQELRERGNPEEAIEVLLRALKHIYERGDEELLQELWELVERIGSSSSSSS
B18: il10ra_site1_sap_19_mot_HHH_b1_04771_000000013_0001_40_56_H_._HHH_b2_07595_af2_0001_0000300007_0000002_0_0001 (protein)
chain: SSSSDEEEKEVEELLEKAIRLAEERGDRAAVWLLRQALMALKLAGDPEALEIAEQMARIVLSSSS
B19: il10ra_site1_sap_11_mot_HHH_b2_03438_af2_000000049_0001_18_34_H_._HHH_b1_06062_0001_0000200032_0000001_1_0001 (protein)
chain: SSSSSTEEEIEELIEKAKEARENGDPRKAARLLAEAVRLAFELGDEELLREIWRLIHELASSSSS
B20: il10ra_site1_normal_mot_HHH_b2_04912_000000028_0001_1_20_H_._HHH_b2_05178_af2_0001_0000100003_0000001_0 (protein)
chain: SSSSDLNERALRLSIEAFRLLLRGDEEEAEKVLEEALELAEEANNERLFRQIEELLRALGSSSSS
B21: il10ra_site1_sap_15_mot_104c758fc23488854646035ccb2100c6_0001_000000282_0001_15_29_H_._01fd6ef1c0b6efbd76c07e5c6c7df02b_0001_0001_0000600016_0000001_0_0001 (protein)
chain: SSSSDEEVREEVREILEEAEQIEDERERAQLLFRAMELAYENGDDELWREVIQVAARLVQSSSSS
B22: il10ra_site1_normal_mot_8756ee2cf497b5429c717dfc0c0bcfd6_0001_000000186_0001_1_13_H_._HHH_b2_04126_af2_0001_0000700027_0000001_0 (protein)
chain: SSSSDEAAERVMELIREAIELQRRGNPEEAEKVLEEAQEIAEENNNDVLRAQLEYLLRRNSSSSS
B23: il10ra_site1_normal_mot_7f9b3cf633cfd27bca007b62ade1be3b_0001_1_000000138_0001_17_32_H_._HHH_b2_02154_0001_0000100005_0000001_1 (protein)
chain: SSSSDRAEEQARAARRFLRALVEAGDPEAARRIAEAAHQALRNLGNPELAEEIRELIEELLSSSS
B24: il10ra_site1_normal_mot_HHH_b2_01310_000000089_0001_41_55_H_._HHH_b1_05128_af2_0001_0000100002_0000001_0_af2pred_0001 (protein)
chain: SSSSDEEERLEELEKRLEELAEEGDEEEFIRLLLELARLAYRLNDKRIFERIIELAELFKSSSSS
B25: il10ra_site1_normal_mot_HHH_b2_08144_af2_000000046_0001_38_52_H_._HHH_b1_00696_0001_0000600035_0000001_0 (protein)
chain: SSSSTEEIQRIMELLRRAAELLNEGNPEEAEKLIEEAEELVKEANDPLLEIQLRFLERDINSSSS
B26: il10ra_site1_sap_23_mot_HHH_b1_07286_af2_000000054_0001_1_19_H_._HHH_b1_04853_0001_0000200021_0000001_1_0001 (protein)
chain: SSSSDEENREVYELSREAAELDSEGNPEEAEKVLEEARKLAEEAGNRLARIILEHLERIVNSSSS
B27: il10ra_site1_sap_20_mot_HHH_b1_04573_000000273_0001_43_57_H_._HHH_b2_07679_0001_0000100005_0000002_0_0001 (protein)
chain: SSSSSDENEEIYRLLREAAEALANGNPEEAREIVEQAVELAEEANSQVLLFNAEYLLRQINSSSS
B28: il10ra_site1_normal_mot_HHH_b2_07521_000000141_0001_20_37_H_._HHH_b2_04337_0001_0000200016_0000001_1 (protein)
chain: SSSSSDAERYVRLTLEFAKWLLEAGDPAYRRFLRAAEDIAKRAGDDELERLVEEVEEELNSSSSS
B29: il10ra_site1_normal_mot_HHH_b2_02337_000000026_0001_38_52_H_._HHH_b1_01113_0001_0000600054_0000001_0 (protein)
chain: SSSSDEEEEVKELLEEVRRLIEEGDFEEAAELLLRATHLAVELGDAELLQEVWEVVQLLYNSSSS
B30: il10ra_site1_normal_mot_HHH_b2_00273_000000062_0001_23_39_H_._HHH_b1_04796_af2_0001_0000100005_0000002_0 (protein)
chain: SSSSSEEELEELLEEVKKLIEKNDPERALRAIMEALRLAFRLSDEEALRELWELAKLVAELSSSS
B31: il10ra_site1_normal_mot_HHH_b2_03328_af2_000000127_0001_1_19_H_._HHH_b1_04034_0001_0000100003_0000001_0 (protein)
chain: SSSSDLEELYRLSREAAELFANGNPEEAERVLEEAEELAQELNSPVLLFNLRHLLRAIRQSSSSS
B32: il10ra_site1_normal_mot_HHH_b1_06804_000000054_0001_40_54_H_._HHH_b2_02477_af2_0001_0000600016_0000001_0_af2pred_dldesign_0_af2pred (protein)
chain: SSSSSSREELARLKAETEAALAAGDKETAYKLAIELAKRAAEEEDAEALAFARDVLERLSSSSSS
B33: il10ra_site1_normal_mot_HHH_b2_02053_af2_000000006_0001_3_19_H_._HHH_b2_07729_0001_0000400043_0000001_0 (protein)
chain: SSSSSEELYELSREALELLAQGNPEEAEKVIEEAEELAKELGNRAMLLVLRHLLHAVEQLSSSSS
B34: il10ra_site1_sap_25_mot_HHH_b2_07784_af2_000000103_0001_19_36_H_._HHH_b1_08477_0001_0000100004_0000001_0_0001 (protein)
chain: SSSSDEEEEKVLELFVKVSRLLDEGDEEKAEEILREAEELAKEINDPELELAVRFLKALASSSSS
B35: il10ra_site1_normal_mot_HHH_b2_05323_000000159_0001_1_18_H_._HHH_b1_00659_af2_0001_0000100005_0000002_0 (protein)
chain: SSSSDQEYVQEALRLVLEAFRLALRGNPEEARELLEEALELAEKGGNPRLARVIRHLLQALSSSS
B36: il10ra_site1_normal_mot_HHH_b2_07579_000000275_0001_1_19_H_._HHH_b2_07760_0001_0000200028_0000001_0_af2pred_0001 (protein)
chain: SSSSDEIEELLRLIRKAAELLRKGDPEKAREVLEQAEELAEELGNRLTLHALKSLQHNVDSSSSS
B37: il10ra_site1_normal_mot_HHH_b2_08186_000000021_0001_43_56_H_._HHH_b1_05775_af2_0002_0000700031_0000002_0 (protein)
chain: SSSSEEERVEELQEEIKELEEEGDLKRVLRLLQEILRLIYRLGDAELLRRLWELLKELERRQSSS

target: il10ra, Q13651; assay: yeast display titration

Apparent Kd, inactive:
B1 no binding seen
B2 no binding seen
B3 no binding seen
B4 no binding seen
B5 no binding seen
B6 no binding seen
B7 no binding seen
B8 no binding seen
B9 no binding seen
B10 no binding seen
B11 no binding seen
B12 no binding seen
B13 no binding seen
B14 no binding seen
B15 no binding seen
B16 no binding seen
B17 no binding seen
B18 no binding seen
B19 no binding seen
B20 no binding seen
B21 no binding seen
B22 no binding seen
B23 no binding seen
B24 no binding seen
B25 no binding seen
B26 no binding seen
B27 no binding seen
B28 no binding seen
B29 no binding seen
B30 no binding seen
B31 no binding seen
B32 no binding seen
B33 no binding seen
B34 no binding seen
B35 no binding seen
B36 no binding seen
B37 no binding seen

10 consecutive entries from above, for reference:
Apparent Kd, inactive:
B7 no binding seen
B8 no binding seen
B9 no binding seen
B10 no binding seen
B11 no binding seen
B12 no binding seen
B13 no binding seen
B14 no binding seen
B15 no binding seen
B16 no binding seen

From publication PMC10163288
